Measured values: patent US20180171012A1
Results are given in words; binding and its absence hold for the method and conditions named. Some entries that bind do so weakly or less than the wild type.

How the values were obtained:
[1] = biological target: TfR existing on the endothelium of blood vessels in the brain of cynomolgus monkeys (printed as hTfR) (cynomolgus monkey (Macaca fascicularis)); test: immunohistochemistry (IgG detection antibody, DAB, hematoxylin) of frozen cerebral cortex sections of a cynomolgus monkey 8 h after one intravenous dose of 5.0 mg/kg [b]
[2] = biological target: TfR existing on the endothelium of blood vessels in the brain of cynomolgus monkeys (printed as hTfR) (cynomolgus monkey (Macaca fascicularis)); test: immunohistochemistry (IgG detection antibody, DAB, hematoxylin) of frozen hippocampus sections of a cynomolgus monkey 8 h after one intravenous dose of 5.0 mg/kg [b]
[3] = biological target: TfR existing on the endothelium of blood vessels in the brain of cynomolgus monkeys (printed as hTfR) (cynomolgus monkey (Macaca fascicularis)); test: immunohistochemistry (IgG detection antibody, DAB, hematoxylin) of frozen cerebellum sections of a cynomolgus monkey 8 h after one intravenous dose of 5.0 mg/kg [b]
[4] = biological target: TfR existing on the endothelium of blood vessels in the brain of cynomolgus monkeys (printed as hTfR) (cynomolgus monkey (Macaca fascicularis)); test: immunohistochemical staining of monkey brain after intravenous administration
[5] = biological target: TfR existing on the endothelium of blood vessels in the brain of cynomolgus monkeys (printed as hTfR) (cynomolgus monkey (Macaca fascicularis)); test: immunohistochemistry (IgG detection antibody, DAB, hematoxylin) of frozen cerebral cortex sections of a cynomolgus monkey 8 h after one intravenous dose of 5.0 mg/kg [c]
[6] = biological target: TfR existing on the endothelium of blood vessels in the brain of cynomolgus monkeys (printed as hTfR) (cynomolgus monkey (Macaca fascicularis)); test: immunohistochemistry (IgG detection antibody, DAB, hematoxylin) of frozen cerebellum sections of a cynomolgus monkey 8 h after one intravenous dose of 5.0 mg/kg [c]
[7] = biological target: TfR existing on the endothelium of blood vessels in the brain of cynomolgus monkeys (printed as hTfR) (cynomolgus monkey (Macaca fascicularis)); test: immunohistochemistry (IgG detection antibody, DAB, hematoxylin) of frozen hippocampus sections of a cynomolgus monkey 8 h after one intravenous dose of 5.0 mg/kg [c]
[8] = biological target: recombinant monkey TfR (r monkey TfR: Sino Biological Inc.), cynomolgus monkey TfR extracellular region with N-terminal histidine tag (cynomolgus monkey (Macaca fascicularis)); test: BLI, Octet RED96
[9] = biological target: recombinant human TfR (r human TfR: Sino Biological Inc.), hTfR extracellular region with N-terminal histidine tag (human) (UniProt P02786); test: BLI, Octet RED96

Measured: binding

B1: anti-hTfR antibody No. 1 (antibody, V domains shown)
VH: EVQLQESGGGLVQPGGSLKLSCAASGLTFSNYGMSWIRQTPDKRLELVANINTNGGSTYYPDSVKGRFTISRDNAKNTLYLQMNSLKSEDTAIYYCTNNRYDEDYWGQGTSVTVSS
VL: DIVLTQSSKFMSTSVGDRVSITCKASQDVNSAVAWFQQKPGQSPKLLIYWTSTRHTGVPDRFTGSGSGTVYTLTISSVQAEDLALYYCQQHYSTPRTFGGGTKLEIKR
binds: [1] | [2] | [3] | [4]

B2: anti-hTfR antibody No. 2 (antibody, V domains shown)
VH: EVQLQESGAELVRPGVSVKISCKGSGYTFTDYVMHWVRQSHAKSLEWIGVISTYYGHGSYNQRFKGKATMTVDKSSSTAYLELVRLTSEDSAIYYCVRGGYGSSSLAGNFDVWGAGTTVTVSS
VL: DIVLTQSPATLSVTPGDSVSLSCRASQSISNNLQWYQQKSHESPRLLIKYASQSISGIPSRFSGSGSGTDFTLSINSVETEDFGMYFCQQSNSWPRTFGAGTKLELKR
binds: [5] | [6] | [4] | [7]

B3: humanized anti-hTfR antibody No. 1 (antibody, human IgG1, kappa, V domains shown)
VH: EVQLVESGGGLVQPGGSLRLSCAASGLTFSNYGMSWVRQAPGKGLELVANINTNGGSTYYPDSVKGRFTISRDNAKNSLYLQMNSLRAEDTAVYYCTNNRYDEDYWGQGTLVTVSS
VL: DIQVTQSPSFLSASVGDRVTITCKASQDVNSAVAWFQQKPGKAPKLLIYWTSTRHTGVPDRFSGSGSGTVYTLTISSLQPEDFATYYCQQHYSTPRTFGGGTKVEIKR
binds: [8] | [9]
